Measurements: patent US20160289728A1, “METHOD FOR DETECTING FLUORESCENCE OR ABSORBANCE, METHOD FOR SUPPRESSING BACKGROUND, METHOD FOR MEASURING ADP, METHOD FOR MEASURING ACTIVITY OF ADP-SYNTHESIZING ENZYME, AND METHOD FOR MEASURING ACTIVITY OF GLUCOSYLTRANSFERASE” (The University of Tokyo, priority 2013, published 2016)

Tests used:
Format in all cases: biochemical
[1] = Quantification of ADP in the presence of DTT, 2-mercaptoethanol or TCEP (Example 20); conditions: 20 μM ADP, 40 mM SH reagent
[2] = Quantification of ADP in the presence of maleimides or iodoacetamide (Example 19); conditions: 20 μM ADP, 40 mM SH reagent
[3] = ADP calibration by enzymatic coupling with or without DTT and SH reagent (Examples 10, 12, 13); conditions: 20 μM ADP, 2 mM DTT

SMILES | S/B ratio ([1]; 6 mM 2-mercaptoethanol) | S/B ratio ([1]; 6 mM DTT) | S/B ratio ([1]; 6 mM TCEP) | S/B ratio ([2]; 3 mM DTT) | S/B ratio ([2]; 6 mM DTT) | S/B ratio ([3]; 8 mM SH reagent) | S/B ratio ([3]; 20 mM SH reagent) | increase of S/B ratio versus no SH reagent ([3]; 20 mM SH reagent)
NC(=O)CI [iodoacetamide] | 18.8 | 9.0 | 12.1 | 18.2 | 13.3 | 18.6 | – | –
O=C1C=CC(=O)N1CCS(=O)(=O)O [N-(2-sulfoethyl)maleimide] | – | – | – | 24.0 | 21.0 | – | – | –
CCN1C(=O)C=CC1=O [N-ethylmaleimide] | 19.6 | 18.2 | 19.9 | 23.8 | 22.5 | – | 36.7 | about 9 times
